Experimental data: PubChem BioAssay AID1159584 (Peter MacCallum Cancer Centre, 2016)

Test: 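Knock-downs that harm CDH1-null cells more than parental MCF10A cells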 (primary screen)
Cell system: human MCF10A breast epithelial cells, parental and CDH1-null
Reagents: siRNA against human genes
Measured: 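ATP luminescence (CellTiter-Glo) viability per line relative to mean mock wells over all plates, and the ratio of CDH1-null to parental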
Reading the numbers: CDH1-null / parental viability ratio: higher = CDH1-null cells survive relatively better than parental
In all, the deposit lists about 18,000 reagents; shown is a random part of them. Not all columns of the deposit are shown. Not stated in the record: the amount of reagent, the time to read-out.

Gene	CDH1-null / parental viability ratio
CPSF1	1.03
RND2	1.6
ARHGEF28	1.15
ATP6V1C2	1.02
ZDHHC24	0.87
MAGEA11	0.88
TTYH1	1.23
H4C2	1.08
C6orf62	0.93
MYH2	0.95
LDLRAP1	0.85
RPL37	1.25

2 entries from above, ordered by “CDH1-null / parental viability ratio”, descending.
Gene	CDH1-null / parental viability ratio
TTYH1	1.23
H4C2	1.08

Further reagents follow:
Gene	CDH1-null / parental viability ratio
STARD10	1.47
CAPSL	1.32
CLEC5A	0.81
ANKRD13C-DT	1.42
CARD8	0.93
NAA16	0.95
SLC36A2	1
CNKSR2	0.89
C21orf58	0.93
MAP3K15	1.07
HS3ST4	1.01
POLA1	0.76
IP6K3	0.93
USP25	1.22
RP2	1.09
MCM2	1.02
